# Source: the supplement of paper PMC6411743
# Chains of the proteins cited; added tags and fusions are not shown. Lines headed by an entry give the natural chain unless they say otherwise; changes in a name come on top.
# UniProt P04844: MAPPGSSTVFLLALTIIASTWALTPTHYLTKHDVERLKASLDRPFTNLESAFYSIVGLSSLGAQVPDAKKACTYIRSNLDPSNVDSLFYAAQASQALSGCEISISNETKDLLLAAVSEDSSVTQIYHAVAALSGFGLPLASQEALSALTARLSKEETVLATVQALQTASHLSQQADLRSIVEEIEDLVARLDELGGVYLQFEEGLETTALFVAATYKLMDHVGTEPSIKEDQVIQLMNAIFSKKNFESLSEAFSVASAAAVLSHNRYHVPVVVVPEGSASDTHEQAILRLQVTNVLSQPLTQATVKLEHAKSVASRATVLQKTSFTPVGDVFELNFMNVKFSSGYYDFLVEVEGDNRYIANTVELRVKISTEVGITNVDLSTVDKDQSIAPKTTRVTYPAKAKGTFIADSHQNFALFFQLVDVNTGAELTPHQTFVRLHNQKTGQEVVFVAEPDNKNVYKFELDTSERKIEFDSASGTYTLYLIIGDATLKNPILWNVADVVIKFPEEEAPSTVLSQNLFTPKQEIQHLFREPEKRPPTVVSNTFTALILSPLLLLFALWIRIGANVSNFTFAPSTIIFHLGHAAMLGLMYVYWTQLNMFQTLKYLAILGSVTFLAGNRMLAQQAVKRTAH
# UniProt O95747, whole entry, looked up: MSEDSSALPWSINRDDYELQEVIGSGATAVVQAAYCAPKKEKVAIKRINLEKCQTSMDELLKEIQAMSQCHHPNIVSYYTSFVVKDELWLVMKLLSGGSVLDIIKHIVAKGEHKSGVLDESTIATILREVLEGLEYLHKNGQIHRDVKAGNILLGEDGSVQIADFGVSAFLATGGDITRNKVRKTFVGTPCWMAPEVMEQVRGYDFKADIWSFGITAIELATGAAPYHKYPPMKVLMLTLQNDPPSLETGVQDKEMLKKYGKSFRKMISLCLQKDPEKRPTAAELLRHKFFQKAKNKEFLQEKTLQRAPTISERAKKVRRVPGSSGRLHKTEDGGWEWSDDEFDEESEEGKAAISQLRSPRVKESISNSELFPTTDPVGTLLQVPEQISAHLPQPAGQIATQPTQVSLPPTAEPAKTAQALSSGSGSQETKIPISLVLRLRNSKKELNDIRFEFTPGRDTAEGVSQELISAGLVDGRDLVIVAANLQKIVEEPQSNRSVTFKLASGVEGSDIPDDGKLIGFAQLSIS
# UniProt P00558: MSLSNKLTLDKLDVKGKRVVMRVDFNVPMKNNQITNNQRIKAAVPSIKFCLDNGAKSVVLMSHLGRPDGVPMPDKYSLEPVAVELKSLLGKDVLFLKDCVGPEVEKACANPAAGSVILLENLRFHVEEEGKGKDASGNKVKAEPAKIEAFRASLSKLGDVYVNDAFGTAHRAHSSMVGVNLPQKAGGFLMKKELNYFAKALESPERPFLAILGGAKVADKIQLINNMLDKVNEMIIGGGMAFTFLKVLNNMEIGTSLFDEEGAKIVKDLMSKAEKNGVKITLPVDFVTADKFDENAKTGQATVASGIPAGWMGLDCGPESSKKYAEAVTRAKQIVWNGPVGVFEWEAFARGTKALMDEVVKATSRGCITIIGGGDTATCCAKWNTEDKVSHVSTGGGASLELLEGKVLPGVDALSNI
# UniProt O75746: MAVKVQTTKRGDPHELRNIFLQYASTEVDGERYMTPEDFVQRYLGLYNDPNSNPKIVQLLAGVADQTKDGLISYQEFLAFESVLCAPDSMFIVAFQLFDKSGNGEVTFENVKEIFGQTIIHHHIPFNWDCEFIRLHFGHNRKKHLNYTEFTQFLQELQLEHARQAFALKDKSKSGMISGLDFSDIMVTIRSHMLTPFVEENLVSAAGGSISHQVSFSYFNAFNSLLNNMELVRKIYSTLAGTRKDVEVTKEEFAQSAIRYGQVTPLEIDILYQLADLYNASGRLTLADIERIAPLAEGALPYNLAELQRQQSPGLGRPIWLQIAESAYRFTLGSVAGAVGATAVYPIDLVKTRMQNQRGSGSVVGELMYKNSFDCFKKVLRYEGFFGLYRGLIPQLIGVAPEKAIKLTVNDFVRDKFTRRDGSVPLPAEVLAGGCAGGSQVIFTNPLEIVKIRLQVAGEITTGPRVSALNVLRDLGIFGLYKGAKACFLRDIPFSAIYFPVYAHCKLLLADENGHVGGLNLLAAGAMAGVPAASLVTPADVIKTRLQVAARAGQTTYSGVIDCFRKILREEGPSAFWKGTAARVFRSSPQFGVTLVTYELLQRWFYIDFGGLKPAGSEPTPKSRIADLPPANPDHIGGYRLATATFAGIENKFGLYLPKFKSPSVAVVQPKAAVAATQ
# UniProt O95400: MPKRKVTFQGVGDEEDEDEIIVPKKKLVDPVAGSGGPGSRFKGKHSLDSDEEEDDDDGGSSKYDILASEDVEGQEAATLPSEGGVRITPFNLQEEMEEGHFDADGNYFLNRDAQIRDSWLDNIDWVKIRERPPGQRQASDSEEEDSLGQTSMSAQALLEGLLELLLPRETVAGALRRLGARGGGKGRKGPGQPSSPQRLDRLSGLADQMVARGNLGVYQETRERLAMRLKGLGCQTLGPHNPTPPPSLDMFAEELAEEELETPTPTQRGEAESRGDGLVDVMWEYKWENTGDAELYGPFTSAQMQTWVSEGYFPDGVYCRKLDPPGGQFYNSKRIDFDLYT
# UniProt O60942: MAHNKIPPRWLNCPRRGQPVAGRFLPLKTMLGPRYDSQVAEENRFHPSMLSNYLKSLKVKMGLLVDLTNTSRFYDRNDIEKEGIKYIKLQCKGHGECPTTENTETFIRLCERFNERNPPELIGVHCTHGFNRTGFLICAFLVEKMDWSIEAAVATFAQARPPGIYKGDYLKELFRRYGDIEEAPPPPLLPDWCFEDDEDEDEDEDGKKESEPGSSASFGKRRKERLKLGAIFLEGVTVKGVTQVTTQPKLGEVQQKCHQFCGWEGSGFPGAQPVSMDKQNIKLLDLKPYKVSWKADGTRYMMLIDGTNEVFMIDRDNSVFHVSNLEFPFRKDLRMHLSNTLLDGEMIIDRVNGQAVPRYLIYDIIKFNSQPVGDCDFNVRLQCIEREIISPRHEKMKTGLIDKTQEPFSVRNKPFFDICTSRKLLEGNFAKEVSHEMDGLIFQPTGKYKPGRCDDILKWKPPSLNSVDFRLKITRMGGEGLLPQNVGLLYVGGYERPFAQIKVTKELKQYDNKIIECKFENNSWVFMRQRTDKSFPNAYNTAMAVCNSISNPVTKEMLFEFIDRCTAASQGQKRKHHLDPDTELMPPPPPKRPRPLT
# UniProt O75037: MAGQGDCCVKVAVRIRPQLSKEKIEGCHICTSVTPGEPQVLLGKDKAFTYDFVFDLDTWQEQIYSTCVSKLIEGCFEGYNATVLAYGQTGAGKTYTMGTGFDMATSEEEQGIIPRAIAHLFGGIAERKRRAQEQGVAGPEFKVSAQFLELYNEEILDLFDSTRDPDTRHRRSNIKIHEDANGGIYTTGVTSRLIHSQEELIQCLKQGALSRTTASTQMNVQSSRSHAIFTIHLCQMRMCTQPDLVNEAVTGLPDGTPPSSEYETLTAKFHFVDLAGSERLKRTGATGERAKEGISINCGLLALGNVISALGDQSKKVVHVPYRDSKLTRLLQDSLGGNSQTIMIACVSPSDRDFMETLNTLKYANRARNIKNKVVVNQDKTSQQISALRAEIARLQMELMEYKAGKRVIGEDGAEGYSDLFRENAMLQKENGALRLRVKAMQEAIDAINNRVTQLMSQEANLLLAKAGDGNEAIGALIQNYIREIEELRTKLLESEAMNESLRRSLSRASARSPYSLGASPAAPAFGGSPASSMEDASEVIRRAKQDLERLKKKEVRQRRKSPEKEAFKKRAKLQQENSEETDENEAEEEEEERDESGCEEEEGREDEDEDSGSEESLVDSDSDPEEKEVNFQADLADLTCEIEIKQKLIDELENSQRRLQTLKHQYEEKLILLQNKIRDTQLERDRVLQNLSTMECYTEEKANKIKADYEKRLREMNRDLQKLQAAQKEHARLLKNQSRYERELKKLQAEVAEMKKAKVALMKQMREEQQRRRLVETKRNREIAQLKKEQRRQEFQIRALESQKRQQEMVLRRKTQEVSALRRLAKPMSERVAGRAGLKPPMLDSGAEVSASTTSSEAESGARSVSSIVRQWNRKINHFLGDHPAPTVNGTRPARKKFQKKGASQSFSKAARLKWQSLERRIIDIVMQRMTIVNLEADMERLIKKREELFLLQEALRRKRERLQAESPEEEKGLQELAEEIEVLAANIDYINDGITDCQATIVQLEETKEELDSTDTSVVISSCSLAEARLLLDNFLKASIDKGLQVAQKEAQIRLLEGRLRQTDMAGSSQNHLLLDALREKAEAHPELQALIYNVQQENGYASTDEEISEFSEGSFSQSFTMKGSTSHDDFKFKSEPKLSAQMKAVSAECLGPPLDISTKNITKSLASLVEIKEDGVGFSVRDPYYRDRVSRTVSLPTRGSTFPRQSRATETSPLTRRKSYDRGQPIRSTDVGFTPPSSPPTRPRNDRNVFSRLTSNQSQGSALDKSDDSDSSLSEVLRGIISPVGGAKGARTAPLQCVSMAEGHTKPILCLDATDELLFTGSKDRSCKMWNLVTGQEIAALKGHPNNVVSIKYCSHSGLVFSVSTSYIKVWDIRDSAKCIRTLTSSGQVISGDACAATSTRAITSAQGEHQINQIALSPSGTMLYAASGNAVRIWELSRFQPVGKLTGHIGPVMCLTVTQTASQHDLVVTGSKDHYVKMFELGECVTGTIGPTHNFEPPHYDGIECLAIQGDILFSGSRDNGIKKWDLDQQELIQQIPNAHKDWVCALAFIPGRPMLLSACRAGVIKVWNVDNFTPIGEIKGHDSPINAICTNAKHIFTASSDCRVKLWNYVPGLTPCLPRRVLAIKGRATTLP
# UniProt O75446: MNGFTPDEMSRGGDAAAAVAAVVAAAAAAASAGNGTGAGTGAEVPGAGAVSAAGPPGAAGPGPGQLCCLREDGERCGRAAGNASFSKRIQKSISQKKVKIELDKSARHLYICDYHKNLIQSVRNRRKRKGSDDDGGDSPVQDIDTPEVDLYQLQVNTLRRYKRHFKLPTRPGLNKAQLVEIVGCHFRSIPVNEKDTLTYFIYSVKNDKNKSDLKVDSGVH
# UniProt O75616: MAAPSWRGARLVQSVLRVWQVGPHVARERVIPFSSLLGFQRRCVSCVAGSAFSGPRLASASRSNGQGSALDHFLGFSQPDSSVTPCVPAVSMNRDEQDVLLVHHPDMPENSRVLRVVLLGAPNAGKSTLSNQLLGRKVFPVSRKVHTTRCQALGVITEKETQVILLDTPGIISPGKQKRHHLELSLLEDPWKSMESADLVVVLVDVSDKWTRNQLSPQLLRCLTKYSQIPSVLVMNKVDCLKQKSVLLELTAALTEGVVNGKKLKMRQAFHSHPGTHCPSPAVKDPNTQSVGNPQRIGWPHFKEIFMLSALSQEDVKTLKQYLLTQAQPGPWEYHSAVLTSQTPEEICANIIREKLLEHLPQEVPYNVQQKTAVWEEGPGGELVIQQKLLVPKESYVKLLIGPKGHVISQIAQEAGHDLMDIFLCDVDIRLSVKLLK
# UniProt O94766: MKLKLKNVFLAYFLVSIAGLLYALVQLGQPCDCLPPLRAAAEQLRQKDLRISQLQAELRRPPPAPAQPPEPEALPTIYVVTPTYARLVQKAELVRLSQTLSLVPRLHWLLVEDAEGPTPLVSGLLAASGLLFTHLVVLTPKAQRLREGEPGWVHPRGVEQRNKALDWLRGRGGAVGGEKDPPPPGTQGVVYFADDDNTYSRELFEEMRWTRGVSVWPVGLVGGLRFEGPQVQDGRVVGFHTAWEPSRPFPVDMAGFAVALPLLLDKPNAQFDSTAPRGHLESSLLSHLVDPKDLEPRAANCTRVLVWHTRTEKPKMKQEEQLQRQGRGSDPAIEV
# UniProt P07108: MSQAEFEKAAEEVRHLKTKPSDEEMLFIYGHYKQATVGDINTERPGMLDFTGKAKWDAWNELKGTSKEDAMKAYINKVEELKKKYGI
# UniProt P05141: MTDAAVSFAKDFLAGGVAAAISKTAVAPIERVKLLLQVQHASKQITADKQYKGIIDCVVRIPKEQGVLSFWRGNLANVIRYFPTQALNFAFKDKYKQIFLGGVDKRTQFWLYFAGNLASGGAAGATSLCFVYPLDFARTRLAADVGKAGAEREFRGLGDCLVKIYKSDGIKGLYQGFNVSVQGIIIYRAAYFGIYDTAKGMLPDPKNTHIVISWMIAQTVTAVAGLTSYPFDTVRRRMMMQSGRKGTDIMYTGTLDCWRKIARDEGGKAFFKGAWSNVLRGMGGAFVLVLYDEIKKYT
# UniProt O75486: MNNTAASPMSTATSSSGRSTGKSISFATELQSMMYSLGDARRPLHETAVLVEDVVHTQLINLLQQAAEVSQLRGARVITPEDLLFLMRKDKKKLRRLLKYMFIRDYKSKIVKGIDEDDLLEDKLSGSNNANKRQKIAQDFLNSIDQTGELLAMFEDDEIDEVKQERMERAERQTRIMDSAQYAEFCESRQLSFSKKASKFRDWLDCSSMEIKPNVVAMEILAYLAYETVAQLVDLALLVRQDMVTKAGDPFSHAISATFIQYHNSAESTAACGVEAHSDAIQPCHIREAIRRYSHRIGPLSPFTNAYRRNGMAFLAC
# ± gives the standard deviation of the averaged measurements. This is one part of the list.
# Compound: Nc1nc2c(ncn2[C@@H]2O[C@H](COP(=O)(O)OP(=O)(O)OP(=O)(O)O)[C@@H](O)[C@H]2O)c(=O)[nH]1 [guanosine triphosphate]
# Assay: NP40-soluble protein abundance relative to vehicle (solubility fold change) (ratio); higher = more soluble protein in presence of GTP
# Procedure, shortened: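 Each value is a fold change relative to the detergent-processed vehicle, calculated per replicate from vsn-normalised intensities. Jurkat crude lysate received eight concentrations (0.1 to 10 mM) for 10 min at room temperature and 3 min at 37 °C, then was solubilised in 0.8% NP40 with benzonase (60 min, 4 °C). The ultracentrifuged supernatant was TMT-labelled and run by LC-MS/MS in three independent experiments.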
Target,NP40-soluble protein abundance (concentration: 0.1mM),NP40-soluble protein abundance (concentration: 0.5mM),NP40-soluble protein abundance (concentration: 1mM),NP40-soluble protein abundance (concentration: 2mM),NP40-soluble protein abundance (concentration: 4mM),NP40-soluble protein abundance (concentration: 6mM),NP40-soluble protein abundance (concentration: 8mM),NP40-soluble protein abundance (concentration: 10mM)
RPN2 (UniProt P04844),0.9917 ± 0.0051,0.996 ± 0.044,0.946 ± 0.019,0.962 ± 0.043,0.963 ± 0.053,0.944 ± 0.034,0.917 ± 0.0098,0.905 ± 0.024
TGFB1 (UniProt P01137),0.926 ± 0.072,1.02 ± 0.11,0.908 ± 0.091,0.961 ± 0.092,0.987 ± 0.055,0.958 ± 0.088,0.896 ± 0.11,0.968 ± 0.14
ATG12 (UniProt O94817),0.994 ± 0.056,0.94 ± 0.019,0.944 ± 0.025,0.893 ± 0.081,0.908 ± 0.071,0.911 ± 0.055,0.958 ± 0.022,0.918 ± 0.065
SLU7 (UniProt O95391),0.951 ± 0.062,0.91 ± 0.097,0.965 ± 0.091,0.989 ± 0.074,1.01 ± 0.015,1.06 ± 0.027,1.2 ± 0.054,1.22 ± 0.067
ZNF217 (UniProt O75362),1 ± 0.011,1.02 ± 0.024,1.02 ± 0.028,1.06 ± 0.042,1.03 ± 0.05,1.05 ± 0.077,1.09 ± 0.1,1.08 ± 0.13
UniProt O95747,0.948 ± 0.11,0.956 ± 0.1,0.909 ± 0.095,0.895 ± 0.072,0.879 ± 0.082,0.877 ± 0.077,0.872 ± 0.092,0.867 ± 0.1
ZMPSTE24 (UniProt O75844),0.933 ± 0.035,0.987 ± 0.08,0.814 ± 0.04,0.863 ± 0.059,0.817 ± 0.028,0.844 ± 0.052,0.758 ± 0.062,0.769 ± 0.084
UniProt P00558 and related entries,0.907 ± 0.059,0.882 ± 0.059,0.859 ± 0.049,0.829 ± 0.13,0.787 ± 0.069,0.836 ± 0.083,0.834 ± 0.068,0.812 ± 0.076
UniProt P04049 and related entries,1.13 ± 0.13,1.31 ± 0.22,1.28 ± 0.2,1.4 ± 0.28,1.44 ± 0.3,1.38 ± 0.31,1.37 ± 0.29,1.37 ± 0.29
UniProt O95999 and related entries,0.876 ± 0.03,0.885 ± 0.032,0.947 ± 0.056,0.92 ± 0.071,0.885 ± 0.053,0.926 ± 0.093,0.888 ± 0.065,0.917 ± 0.038
UniProt O60921 and related entries,1.2 ± 0.32,1.12 ± 0.27,1.12 ± 0.19,1.11 ± 0.18,1.03 ± 0.24,1.03 ± 0.14,1.05 ± 0.22,1.02 ± 0.22
PPM1B (UniProt O75688),0.9514 ± 0.0053,0.95 ± 0.041,0.91 ± 0.045,0.9 ± 0.055,0.856 ± 0.064,0.876 ± 0.081,0.868 ± 0.053,0.889 ± 0.056
UniProt O94763 and related entries,1.02 ± 0.051,1.07 ± 0.027,1.09 ± 0.072,1.1 ± 0.075,1.13 ± 0.16,1.15 ± 0.11,1.18 ± 0.16,1.17 ± 0.16
SLC25A12 (UniProt O75746),1.07 ± 0.011,1.04 ± 0.016,1.03 ± 0.058,1.03 ± 0.075,1.07 ± 0.076,1.04 ± 0.1,1.03 ± 0.063,1.01 ± 0.029
CD2BP2 (UniProt O95400),0.913 ± 0.046,0.959 ± 0.039,1.04 ± 0.024,1.07 ± 0.049,1.17 ± 0.12,1.27 ± 0.099,1.38 ± 0.16,1.51 ± 0.24
AHSA1 (UniProt O95433),1.002 ± 0.0056,1.027 ± 0.01,0.947 ± 0.027,0.931 ± 0.029,0.861 ± 0.045,0.903 ± 0.049,0.86 ± 0.041,0.848 ± 0.063
RNGTT (UniProt O60942),1.04 ± 0.013,1.01 ± 0.031,0.962 ± 0.018,0.978 ± 0.024,0.953 ± 0.015,0.933 ± 0.041,0.881 ± 0.041,0.893 ± 0.07
GIGYF1 (UniProt O75420),1.01 ± 0.053,1.07 ± 0.2,1.03 ± 0.082,1.08 ± 0.049,1.17 ± 0.15,1.13 ± 0.12,1.002 ± 0.01,0.952 ± 0.062
UniProt O75928 and related entries,0.9953 ± 0.0044,0.918 ± 0.031,0.974 ± 0.017,0.895 ± 0.058,0.898 ± 0.033,0.89 ± 0.072,0.968 ± 0.02,1.01 ± 0.041
TXNDC12 (UniProt O95881),0.934 ± 0.06,0.867 ± 0.04,1.01 ± 0.064,0.964 ± 0.085,0.971 ± 0.1,0.937 ± 0.089,0.948 ± 0.12,0.934 ± 0.089
UniProt O75037 and related entries,1 ± 0.032,1.07 ± 0.042,1.12 ± 0.055,1.08 ± 0.051,1.12 ± 0.056,1.14 ± 0.068,1.17 ± 0.099,1.15 ± 0.014
SAP30 (UniProt O75446),0.981 ± 0.23,0.996 ± 0.15,1.14 ± 0.22,1.11 ± 0.15,1.12 ± 0.2,1.18 ± 0.18,1.22 ± 0.16,1.22 ± 0.2
ZC3H11A (UniProt O75152),0.916 ± 0.066,0.876 ± 0.081,0.871 ± 0.095,0.868 ± 0.1,0.972 ± 0.076,1.02 ± 0.075,1.09 ± 0.051,1.08 ± 0.069
ERAL1 (UniProt O75616),1.07 ± 0.05,1.08 ± 0.068,1.08 ± 0.038,1.17 ± 0.14,1.23 ± 0.17,1.19 ± 0.14,1.13 ± 0.16,1.14 ± 0.08
CPD (UniProt O75976),0.939 ± 0.052,0.937 ± 0.075,0.945 ± 0.079,0.952 ± 0.082,0.917 ± 0.061,0.933 ± 0.074,0.939 ± 0.034,0.956 ± 0.057
UniProt O94766 and related entries,1.01 ± 0.048,0.974 ± 0.052,0.985 ± 0.027,0.963 ± 0.02,0.976 ± 0.045,0.923 ± 0.014,0.984 ± 0.048,0.958 ± 0.033
DBI (UniProt P07108),0.967 ± 0.029,0.969 ± 0.08,0.985 ± 0.073,0.982 ± 0.089,0.937 ± 0.073,0.988 ± 0.11,1.05 ± 0.067,1.08 ± 0.069
UTP20 (UniProt O75691),1.1 ± 0.12,1.13 ± 0.12,1.15 ± 0.19,1.23 ± 0.18,1.26 ± 0.16,1.27 ± 0.21,1.34 ± 0.18,1.29 ± 0.29
SLC25A5 (UniProt P05141),1.02 ± 0.056,1.01 ± 0.078,0.993 ± 0.09,1.06 ± 0.13,1.15 ± 0.17,1.08 ± 0.19,1.07 ± 0.1,1.09 ± 0.052
UniProt O75486 and related entries,1.06 ± 0.097,1.03 ± 0.15,1.08 ± 0.077,1.14 ± 0.038,1.19 ± 0.12,1.14 ± 0.15,1.3 ± 0.21,1.24 ± 0.26

# An excerpt of these results, bar-delimited.
Target | NP40-soluble protein abundance (concentration: 0.1mM) | NP40-soluble protein abundance (concentration: 0.5mM) | NP40-soluble protein abundance (concentration: 1mM) | NP40-soluble protein abundance (concentration: 2mM) | NP40-soluble protein abundance (concentration: 4mM) | NP40-soluble protein abundance (concentration: 6mM) | NP40-soluble protein abundance (concentration: 8mM) | NP40-soluble protein abundance (concentration: 10mM)
UniProt O94766 and related entries | 1.01 ± 0.048 | 0.974 ± 0.052 | 0.985 ± 0.027 | 0.963 ± 0.02 | 0.976 ± 0.045 | 0.923 ± 0.014 | 0.984 ± 0.048 | 0.958 ± 0.033
SLC25A5 (UniProt P05141) | 1.02 ± 0.056 | 1.01 ± 0.078 | 0.993 ± 0.09 | 1.06 ± 0.13 | 1.15 ± 0.17 | 1.08 ± 0.19 | 1.07 ± 0.1 | 1.09 ± 0.052
